# This is one part of the list. Single values are uncertain, as repeats are few or missing.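 The apoptosis fraction was the count of cleaved-PARP antibody-stained nuclei relative to all DNA-stained nuclei, imaged in 1,536-well plates. Screening doses were set so most cells survived, and baseline and induced cleaved-PARP levels vary greatly across cell lines.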
# What was measured:
# Assay in all cases: cleaved PARP positive nuclei fraction relative to DMSO control; melanoma cells; higher = more apoptosis
# Conditions in all cases: library dose: low library concentration; 72 h
# CBRC034 = test system: CBRC034 (line from a melanoma biopsy)
# COLO792 = test system: COLO792
# COLO800 = test system: COLO800
# COLO829 = test system: COLO829
# G361 = test system: G361
# IPC-298 = test system: IPC-298
# IST-MEL1 = test system: IST-MEL1
# LB2518-MEL = test system: LB2518-MEL
# LOXIMVI = test system: LOXIMVI
Compound,cleaved PARP positive nuclei fraction (CBRC034),cleaved PARP positive nuclei fraction (COLO792),cleaved PARP positive nuclei fraction (COLO800),cleaved PARP positive nuclei fraction (COLO829),cleaved PARP positive nuclei fraction (G361),cleaved PARP positive nuclei fraction (IPC-298),cleaved PARP positive nuclei fraction (IST-MEL1),cleaved PARP positive nuclei fraction (LB2518-MEL),cleaved PARP positive nuclei fraction (LOXIMVI)
"COc1ccc(-c2ccc3c(N4CCOCC4)nc(N4C[C@@H](C)O[C@@H](C)C4)nc3n2)cc1CO + CCCCCCCCCCCC1=C(O)C(=O)C=C(O)C1=O [Embelin] (first compound 0.02 µM, partner dose 1.2 µM)",46.3%,69.9%,87.9%,90.2%,35.3%,92.5%,56.6%,162%,83.6%
"CN(NC(=O)CC(=O)NN(C)C(=S)c1ccccc1)C(=S)c1ccccc1 + Cn1cc(/C=C2\C(=O)Nc3cccnc32)c2ccccc21 [GW441756] (first compound 0.006 µM, partner dose 0.4 µM)",57.3%,81%,259%,236%,247%,82.9%,130%,94.3%,50.6%
"O=C(O)c1ccc(-c2c[nH]c3ncc(-c4ccccc4)cc23)cc1C1CCCC1 + c1cc(-c2cnn3cc(-c4ccc(OCCN5CCCCC5)cc4)cnc23)ccn1 [Dorsomorphin] (first compound 0.16 µM, partner dose 0.4 µM)",67.2%,127%,77.1%,142%,100%,167%,97.8%,77.9%,172%
"COc1ccc2c(c1)CCC1C2CCC2(C)C(NCCCCCCN3C(=O)C=CC3=O)CCC12 (stereo unspecified) + CC(C)CCN1c2nc(Nc3cc(F)c(O)c(F)c3)ncc2N(C)C(=O)C1C [BID1870] (first compound 0.4 µM, partner dose 0.2 µM)",112%,135%,155%,46.1%,160%,263%,158%,195%,219%
"CCc1ccc(CCOc2ccc(CC3SC(=O)NC3=O)cc2)nc1 (stereo unspecified) [pioglitazone] + COc1ccc(COc2ccc(Cc3cnc(N)nc3N)cc2OC)cc1 [GW2580] (first compound 2 µM, partner dose 1 µM)",45.8%,59%,128%,86.5%,133%,80.7%,242%,62.2%,66.3%
"NCC(=O)Nc1ccc(-n2nc(C(F)(F)F)cc2-c2ccc3c(ccc4ccccc43)c2)cc1 + N#Cc1c(O)c2c(-c3ccc(-c4ccccc4O)cc3)csc2[nH]c1=O [A769662] (first compound 1 µM, partner dose 2 µM)",68.7%,158%,172%,114%,173%,46.3%,32.9%,83.3%,290%
"COc1ccc(-c2ccc3c(N4CCOCC4)nc(N4C[C@@H](C)O[C@@H](C)C4)nc3n2)cc1CO + O=C(O)C(=O)Nc1sc2c(c1C(=O)O)CCNC2 [TCS401] (first compound 0.02 µM, partner dose 1.66667 µM)",41.5%,157%,58.3%,79.9%,57.4%,86.3%,83.5%,155%,70.2%
"COc1ccc(-c2ccc3c(N4CCOCC4)nc(N4C[C@@H](C)O[C@@H](C)C4)nc3n2)cc1CO + O=c1cc(-c2cccc3c2Sc2ccccc2S3)oc(N2CCOCC2)c1 [KU55933] (first compound 0.02 µM, partner dose 1 µM)",83.5%,129%,191%,128%,46.7%,77.7%,85.9%,59.3%,166%
"O=C(O)c1ccc(-c2c[nH]c3ncc(-c4ccccc4)cc23)cc1C1CCCC1 + N#Cc1c(O)c2c(-c3ccc(-c4ccccc4O)cc3)csc2[nH]c1=O [A769662] (first compound 0.16 µM, partner dose 2 µM)",46.7%,87.8%,132%,82.7%,65.2%,51%,115%,76.9%,41.1%
"COc1cc(N2CCC(N3CCN(C)CC3)CC2)ccc1Nc1ncc(Cl)c(Nc2ccccc2S(=O)(=O)C(C)C)n1 + CC(C)CCN1c2nc(Nc3cc(F)c(O)c(F)c3)ncc2N(C)C(=O)C1C [BID1870] (first compound 0.08 µM, partner dose 0.2 µM)",57.9%,45.4%,102%,95.6%,103%,153%,36.4%,149%,27.4%
"COc1cc2c(Oc3ccc4[nH]c(C)cc4c3F)ncnc2cc1OCCCN1CCCC1 [cediranib] + O=C(O)C(=O)Nc1sc2c(c1C(=O)O)CCNC2 [TCS401] (first compound 0.4 µM, partner dose 1.66667 µM)",121%,59.9%,81.1%,125%,18.1%,95.3%,38.6%,75.4%,60.2%
"CCN(CC)CCCCNc1ncc2cc(-c3cc(OC)cc(OC)c3)c(NC(=O)NC(C)(C)C)nc2n1 + c1cc(-c2cnn3cc(-c4ccc(OCCN5CCCCC5)cc4)cnc23)ccn1 [Dorsomorphin] (first compound 0.1 µM, partner dose 0.4 µM)",49%,106%,76.1%,175%,142%,116%,86.6%,98.8%,103%
"O=C(O)c1ccc(-c2c[nH]c3ncc(-c4ccccc4)cc23)cc1C1CCCC1 + Oc1cc(-c2nc(-c3ccccc3)[nH]c2-c2ccncc2)ccc1Cl [L779450] (first compound 0.16 µM, partner dose 0.2 µM)",101%,162%,117%,118%,76.5%,67.9%,156%,198%,36.1%
"Cc1cc([N+](=O)[O-])ccc1NS(=O)(=O)c1cc(Cl)ccc1Cl + Cn1cc(/C=C2\C(=O)Nc3cccnc32)c2ccccc21 [GW441756] (first compound 1 µM, partner dose 0.4 µM)",285%,132%,81%,91.4%,80.7%,103%,172%,93.9%,34.9%
"CN(NC(=O)CC(=O)NN(C)C(=S)c1ccccc1)C(=S)c1ccccc1 + COc1ccc(COc2ccc(Cc3cnc(N)nc3N)cc2OC)cc1 [GW2580] (first compound 0.006 µM, partner dose 1 µM)",92.7%,122%,197%,278%,90.5%,171%,177%,111%,110%
"COc1ccc(COc2ccc(Cc3cnc(N)nc3N)cc2OC)cc1 + c1cc(-c2cnn3cc(-c4ccc(OCCN5CCCCC5)cc4)cnc23)ccn1 [Dorsomorphin] (first compound 1 µM, partner dose 0.4 µM)",106%,50.7%,103%,80%,110%,45%,31.5%,40.8%,72.2%
"COc1cc2ncnc(Nc3ccc(Oc4ccccc4)cc3)c2cc1OC + COc1cc(N2CCC(N3CCN(C)CC3)CC2)ccc1Nc1ncc(Cl)c(Nc2ccccc2S(=O)(=O)C(C)C)n1 [NVP-TAE684] (first compound 2 µM, partner dose 0.08 µM)",95.8%,78.1%,43.1%,51.7%,44.1%,162%,172%,65.4%,29.1%
"Oc1cc(-c2nc(-c3ccccc3)[nH]c2-c2ccncc2)ccc1Cl + O=c1cc(-c2cccc3c2Sc2ccccc2S3)oc(N2CCOCC2)c1 [KU55933] (first compound 0.2 µM, partner dose 1 µM)",289%,73.9%,105%,63%,143%,169%,57.3%,196%,49.1%
"Oc1cc(-c2nc(-c3ccccc3)[nH]c2-c2ccncc2)ccc1Cl + Cn1cc(/C=C2\C(=O)Nc3cccnc32)c2ccccc21 [GW441756] (first compound 0.2 µM, partner dose 0.4 µM)",120%,129%,84.7%,112%,129%,38%,64.8%,75.1%,63.3%
"COc1ccc(-c2ccc3c(N4CCOCC4)nc(N4C[C@@H](C)O[C@@H](C)C4)nc3n2)cc1CO + COc1cc2ncnc(Nc3ccc(Oc4ccccc4)cc3)c2cc1OC [SrcI1] (first compound 0.02 µM, partner dose 2 µM)",103%,94.5%,113%,99%,90.6%,90.5%,62.5%,160%,67.2%
"COC(=O)c1sccc1S(=O)(=O)Nc1ccc(Nc2ccccc2)cc1OC + COc1cc2ncnc(Nc3ccc(Oc4ccccc4)cc3)c2cc1OC [SrcI1] (first compound 1 µM, partner dose 2 µM)",95.4%,157%,110%,122%,118%,45.4%,176%,126%,53.2%
"O=C(Nc1ccccc1)c1cc([N+](=O)[O-])ccc1Cl + O=C(O)C(=O)Nc1sc2c(c1C(=O)O)CCNC2 [TCS401] (first compound 2 µM, partner dose 1.66667 µM)",337%,136%,58.4%,162%,30.4%,82.8%,172%,98.5%,84.4%
"CN(NC(=O)CC(=O)NN(C)C(=S)c1ccccc1)C(=S)c1ccccc1 + COC(=O)c1sccc1S(=O)(=O)Nc1ccc(Nc2ccccc2)cc1OC [GSK0660] (first compound 0.006 µM, partner dose 1 µM)",80.6%,122%,82%,221%,187%,89%,200%,212%,35.5%
"COc1ccc(COc2ccc(Cc3cnc(N)nc3N)cc2OC)cc1 + Oc1nc(-c2ccc(C(F)(F)F)cc2)nc2c1CSCC2 [XAV939] (first compound 1 µM, partner dose 2 µM)",92.4%,146%,77.6%,74.2%,92.2%,55.2%,88.8%,84.6%,65.1%

# Single entries from the list:
# CN(NC(=O)CC(=O)NN(C)C(=S)c1ccccc1)C(=S)c1ccccc1 + Cn1cc(/C=C2\C(=O)Nc3cccnc32)c2ccccc21 [GW441756] (first compound 0.006 µM, partner dose 0.4 µM) – cleaved PARP positive nuclei fraction (IPC-298): 82.9%
# COc1ccc(-c2ccc3c(N4CCOCC4)nc(N4C[C@@H](C)O[C@@H](C)C4)nc3n2)cc1CO + COc1cc2ncnc(Nc3ccc(Oc4ccccc4)cc3)c2cc1OC [SrcI1] (first compound 0.02 µM, partner dose 2 µM) – cleaved PARP positive nuclei fraction (COLO800): 113%

# From the supplement of paper PMC4604168 (melanoma cell lines)
